{"source": "PubChem BioAssay AID1347076", "about": "(National Center for Advancing Translational Sciences (NCATS), 2019)", "note": "Screen size: about 400,000 compounds; about 13,000 (3.2%) were called active. This list was built around the results that the source calls inconclusive (neither active nor inactive); the mix of calls is not that of the screen. Calls come from the whole dose curve; as a rule, active = well fitted cell-killing curve with a large enough effect; inconclusive = small, poorly fitted or top-dose-only effect, or effect the other way; inactive = flat fitted curve, though single readings scatter. Potencies of inconclusive entries are doubtful fits and often do not repeat. % is set by controls: 0 for no effect and ±100 for the full control effect; potency is the fitted concentration of half-maximal effect."}
{"assay": "qHTS assay for MDR1-selective chemotherapeutics: Primary screen using the drug-selected MDR subline cells KB-V1; note: nearly all actives have a fitted effect of over 60% in size", "conditions": "KB-V1 MDR cells viability, CellTiter-Glo, 72 h; activity change, negative = cytotoxicity: at 46.1 µM (top of the series)", "how_it_was_run": "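Cytotoxicity toward P-gp-expressing KB-V1 cells was determined as loss of CellTiter-Glo luminescence after 72 h at 37 degrees C. Compounds were tested in quantitative HTS format across a concentration range, with curves fitted to normalized data.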"}
{"compound": "CC1(C)CC(=O)C=C(Nc2ccc(Cl)c(Br)c2)C1", "activity change, negative = cytotoxicity": "inconclusive: -40.3%"}
{"compound": "Cc1ccccc1C(=O)N1CCC(c2nc3ccccc3s2)CC1", "Potency": "inconclusive: 16.4 µM [cytotoxic, single point]"}
{"compound": "CC(=O)c1cccc(CN2CCC(n3nccc3NC(=O)CCc3ccccc3)CC2)c1", "Potency": "inconclusive: 20.6 µM [cytotoxic, single point]"}
{"compound": "COc1ccc(NC(=O)c2cc(-c3ccccc3OC)on2)cc1", "Potency": "active: 1 µM"}
{"compound": "COc1ccc2[nH]c3c(=O)n(CCCCC(=O)NCCC(C)C)c(=S)[nH]c3c2c1", "activity change, negative = cytotoxicity": "inactive: 3.88%"}
{"compound": "CCOC(=O)c1cnn(-c2ccc(OC)cc2)c1C1CCN(C(=O)OC(C)(C)C)CC1", "Potency": "inconclusive: 16.4 µM [cytotoxic, partial curve, poor fit]"}
{"compound": "O=C(NCCc1ccc(Cl)cc1)c1cccnc1", "Potency": "inconclusive: 20.6 µM [cytotoxic, single point]"}
{"compound": "CCn1c(CSc2nc3ccccc3n2C)nc2ccccc21", "Potency": "inconclusive: 20.6 µM [cytotoxic, partial curve]"}
{"compound": "O=C(c1ccc(F)cc1)C1CCN(C(=O)Nc2ccc(F)cc2)CC1", "Potency": "inconclusive: 29.1 µM [cytotoxic, partial curve, poor fit]"}
{"compound": "CC1(C)Cc2cccc(OCC(=O)NCCOc3ccccc3)c2O1", "Potency": "inconclusive: 23.1 µM [cytotoxic, single point]"}
{"compound": "CCN1/C(=C/c2ccc3cc(C)ccc3[n+]2CC)Sc2cc(C)c(C)cc21", "Potency": "inconclusive: 8.2 µM [cytotoxic, partial curve]"}
{"compound": "COC(=O)c1ccc(OC)c(Cn2c(=O)n(C)c(=O)c3ccccc32)c1", "Potency": "inconclusive: 5.17 µM [cytotoxic, partial curve]"}
{"compound": "Cc1ccc(NC(=O)CSc2ccccc2NC(=O)c2ccccc2Cl)cc1Cl", "Potency": "active: 3.66 µM"}
{"compound": "Cc1c(/C=N\\NC(=O)C2COc3ccc(C(C)(C)C)cc3O2)c2ccccc2n1C", "note": "(stereo not drawn)", "activity change, negative = cytotoxicity": "inconclusive: -29.4%"}
{"compound": "CN(C)/C=N/c1nc2c(ncn2C2CC(O)C(CO)O2)c(=O)[nH]1", "note": "(stereo not drawn)", "activity change, negative = cytotoxicity": "inactive: 4.03%"}
{"compound": "CCOc1ccc(NS(=O)(=O)c2ccc(C(=O)NCc3ccccn3)cc2)cc1", "Potency": "inconclusive: 16.4 µM [cytotoxic, single point]"}
{"compound": "COc1ccc(/C=C/C(=O)Nc2cccc(N3CCOCC3)c2)cc1OC", "Potency": "inconclusive: 4.61 µM [cytotoxic, partial curve]"}
{"compound": "O=C(c1cnsn1)N1CCC(CO)(Cc2ccc(Cl)cc2)CC1", "activity change, negative = cytotoxicity": "inactive: -24.3%"}
{"compound": "COc1ccc2nc(N3C(=O)C(O)=C(C(=O)c4ccco4)C3c3ccc(C)o3)sc2c1", "note": "(stereo not drawn)", "Potency": "inconclusive: 29.1 µM [cytotoxic, single point]"}
{"compound": "COc1ccccc1CNC(=O)[C@@H]1CCCN1C(=O)C1CCN(S(=O)(=O)c2ccc(C)cc2)CC1", "Potency": "active: 16.4 µM"}
{"compound": "Cc1ccc(-c2nc(SCC(=O)NCC3CCCO3)c(-c3ccc(Cl)cc3)[nH]2)cc1", "note": "(stereo not drawn)", "activity change, negative = cytotoxicity": "inactive: 3.79%"}
{"compound": "Cc1ccn2cc(-c3cc4ccccc4oc3=O)nc2c1", "Potency": "inconclusive: 9.2 µM [cytotoxic, partial curve]"}
{"compound": "C/C=C/c1ccc(OCC(=O)Nc2ccc(C(N)=O)cc2)c(OC)c1", "Potency": "inconclusive: 16.4 µM [cytotoxic, single point]"}
{"compound": "CC(C)CNC(=O)C1CCN(c2ccc(S(=O)(=O)N3CCOCC3)cc2[N+](=O)[O-])CC1", "Potency": "inconclusive: 23.1 µM [cytotoxic, partial curve]"}
{"compound": "C=CCn1c(SCC(=O)N2CCCC2=O)nc2sc(CC)cc2c1=O", "Potency": "inconclusive: 6.51 µM [cytotoxic, partial curve]"}
{"compound": "Cc1ccc2ccccc2c1CSc1nc(N)nc2c1ncn2CC(C)C", "Potency": "active: 20.6 µM"}
{"compound": "CCC(=O)Nc1ccc(-c2nnc(SCC(=O)NCC3CCCO3)n2C)cc1", "note": "(stereo not drawn)", "Potency": "inconclusive: 16.4 µM [rising, partial curve]"}
{"compound": "COc1ccc(Cl)cc1N(CC(=O)NCc1ccccn1)S(=O)(=O)c1ccc(C)cc1", "Potency": "inconclusive: 13 µM [cytotoxic, partial curve, poor fit]"}
{"compound": "CC/C(=C\\c1ccc(Cl)cc1)c1ccncc1", "Potency": "inconclusive: 32.6 µM [cytotoxic, single point]"}
{"compound": "Cc1noc(/C=C/N(C)C)c1S(=O)(=O)N1CCCC(C(=O)NCc2ccc(Cl)cc2)C1", "note": "(stereo not drawn)", "Potency": "inconclusive: 23.1 µM [cytotoxic, single point]"}
{"compound": "Cc1cccc(NC(=O)CSc2nc3c(oc4ccccc43)c(=O)n2-c2ccccc2)c1", "Potency": "inconclusive: 5.17 µM [cytotoxic, full curve]"}
{"compound": "C/C=C(/C)C(=O)O[C@H]1[C@@H](O)c2c(ccc3ccc(=O)oc23)OC1(C)C", "Potency": "inconclusive: 20.6 µM [cytotoxic, partial curve, poor fit]"}
{"compound": "CCOC(=O)/C=C1\\SCC(=O)N1CC(=O)Nc1ccc2c(c1)CCC2", "Potency": "inconclusive: 20.6 µM [cytotoxic, single point]"}
{"compound": "CC1Cc2nc(SCC(=O)NCC3CCCO3)n(Cc3ccccc3)c(=O)c2S1", "note": "(stereo not drawn)", "Potency": "inconclusive: 13 µM [cytotoxic, single point]"}
{"compound": "O=[N+]([O-])c1ccc2c3n([n+]([O-])c2c1)CCN=C3c1ccc(Cl)cc1", "activity change, negative = cytotoxicity": "inactive: 13.1%"}
{"compound": "COc1ccc(CCC(C)NCC2CCCCC2)cc1", "note": "(stereo not drawn)", "Potency": "active: 20.6 µM"}
{"compound": "CCOC(=O)C1(C(=O)OCC)CCN(S(=O)(=O)c2ccccc2)CC1", "Potency": "inconclusive: 16.4 µM [cytotoxic, single point]"}
{"compound": "O=C(c1cccc(Cl)c1)N1CCCC(C(=O)N2CCCCCC2)C1", "note": "(stereo not drawn)", "Potency": "inconclusive: 11.2 µM [cytotoxic, partial curve, poor fit]"}
{"compound": "COc1cccc(OCCc2c(C)n[nH]c2C)c1", "Potency": "active: 20.6 µM"}
{"compound": "O=C1CCCC[C@@H](CO)[C@H](O)C[C@H](c2ccccc2)O1", "activity change, negative = cytotoxicity": "inactive: 0%"}
{"compound": "CCOC(=O)c1c(C)[nH]c(C(=O)COC(=O)c2cnc(C)cn2)c1C", "Potency": "inconclusive: 2.31 µM [cytotoxic, full curve]"}
{"compound": "CS(=O)(=O)Oc1ccc2c(c1)O/C(=C\\C=C\\c1ccccc1)C2=O", "Potency": "inconclusive: 3.26 µM [rising, partial curve]"}
{"compound": "COc1ccc(N)cc1-n1c(C)ccc1C", "activity change, negative = cytotoxicity": "inconclusive: -3.96%"}
